Assay results reported in patent publication US20140249122A1, “ANTI-DIABETIC AMINOSTEROID DERIVATIVES” (UNIVERSITE NICE SOPHIA ANTIPOLIS, priority 2011, published 2014).
At least one compound was matched to its structure with a doubt left.

Columns and labels:
[1] = Glucose Tolerance Test (GTT) in obese (high fat diet) mice; type: in vivo; conditions: HFD mice, one week, 10 mg/kg every two days (HFD ST) versus HFD and HFD PF
[2] = Food intake and body weight of obese mice; type: in vivo; conditions: 10 mg/kg every two days
[3] = type: in vivo; conditions: healthy mice, two weeks, same three dose groups; up to 120 minutes
Description: Healthy mice were treated in the same way as previously. A dose of insulin was injected into these mice (at t=0). The blood glucose level of the mice was measured until 120 minutes after the insulin injection. […] The treatment with the ST20 derivative therefore prolongs the effect of insulin.

[4] = Food intake and weight of thin mice; type: in vivo
[5] = Glucose Tolerance Test (GTT) in thin mice; type: in vivo; conditions: two weeks, 5 mg/kg/day, 10 mg/kg/day or 10 mg/kg every two days, up to 120 minutes

In the case of `CC(C)CCC[C@@H](C)[C@H]1CCC2C3C[C@@H](NCCCCNCCCN)C4=C[C@@H](O)CC[C@]4(C)C3CC[C@@]21C` (stereo partly drawn) [ST20, 6β-(spermidine)cholesten-3β-ol], the “blood glucose level after glucose injection (GTT), obese mice” value [1] is reported as “decrease in blood glucose level which is significantly greater than the HFD and HFD PF groups”, the “food intake, obese mice” value ([2]; FIG. 8A) is reported as “decrease in food intake (FIG. 8A), which lasted more than three weeks” and the “body weight, obese mice” value ([2]; FIG. 8B, 5 weeks) is reported as “marked decrease in body weight”. For the same compound, the “blood glucose level after insulin injection (ITT)” value [3] was “the decrease in blood glucose level is prolonged over time”, the “food intake, thin mice” value ([4]; 5 mg/kg/day, 10 mg/kg/day or 10mgday every two days, first 4 days) was “transient decrease in food intake” and the “weight, thin mice” value ([4]; treated versus untreated mice) was “slight reduction in the weight”. The “blood glucose level after glucose injection (GTT)” value [5] was “the blood glucose level decreases more rapidly than for the group of untreated mice”.
